# In PubChem BioAssay AID651640 (Broad Institute, 2012):
# The whole screen tested about 350,000 compounds, of which about 6,000 (1.7%) were called active. The shares of active, inactive and inconclusive entries below differ from those in the screen. Cut-off read from the data, not from the text of the source: active = CPE inhibition above about 20% (passing the limit was not always enough); inconclusive = no clear call, values can overlap the other calls; tested in BHK-21 cells.
# Assay: protection of cells from dengue 2 killing – plate reader, single concentration, primary screen (AID 651640);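 note: 0% = median of neutral control wells and 100% = median of positive control wells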
# Settings: DENV2-infected cells, cytopathic effect rescue, at 9.99 µM, stronger effect = higher value
row,Compound,CPE inhibition
1,Cn1cnnc1SCC(=O)Nc1ccccc1Oc1ccccc1,inconclusive: 31%
2,CCCCNc1nc(N)ncc1[N+](=O)[O-],inactive: -3.4%
3,Cc1noc(C)c1NC(=O)N(C)C[C@@H]1Oc2ccc(NS(=O)(=O)c3cccs3)cc2C(=O)N([C@H](C)CO)C[C@H]1C,inactive: -9.18%
4,O=C(Oc1ccccc1)N1CCCC1,inactive: -6.69%
5,CO[C@H]1CC[C@@H]2CCN(C)C(=O)[C@@H](C)[C@H](OC)CN(C)C(=O)c3cc(C#N)ccc3OC[C@H]1O2,inactive: 1.48%
6,C[C@H](CO)N1C[C@H](C)[C@H](CN(C)S(=O)(=O)c2ccccc2)Oc2c(NS(C)(=O)=O)cccc2C1=O,inconclusive: 63%
7,O=C(COc1ncnc2sccc12)NC1CCS(=O)(=O)C1 (configuration not stated),active: 28%
8,Cc1c(C(=O)NCC(c2ccco2)N(C)C)oc2c(Cl)cccc12 (configuration not stated),inactive: -6.91%
9,COc1ccc2c3c([nH]c2c1)[C@@H](CO)NCC31CN(C(=O)Nc2ccc3c(c2)OCO3)C1,inactive: -1.14%
10,C[C@H]1CN([C@@H](C)CO)C(=O)c2cc(-c3ccncc3)cnc2O[C@@H]1CN(C)S(=O)(=O)c1ccccc1,inconclusive: 21.2%
11,Cc1ccc(C(=O)C(C)OC(=O)Cc2c[nH]c3ccccc23)cc1 (configuration not stated),active: 26.5%
12,Cc1ccc(NC(=O)CCN2C(=O)C3CCCCC3C2=O)c(O)c1 (configuration not stated),inconclusive: 51.4%
13,CCCn1c(N)c(C(=O)CN(C)CC(=O)Nc2cc(C)ccc2C)c(=O)[nH]c1=O,active: 51.1%
14,CC(C)NC(=O)N(C)C[C@@H]1OCCCC[C@@H](C)Oc2ccc(NS(=O)(=O)c3cccs3)cc2C(=O)N([C@H](C)CO)C[C@@H]1C,active: 54.5%
15,CCSc1cc(N2CCCC2)nc(-c2cccc(C)c2)n1,inconclusive: 22.7%
16,CO[C@@H]1CN(C)C(=O)c2cc(NC(=O)c3ccc(Oc4ccccc4)cc3)ccc2OC[C@H](C)NC[C@@H]1C,active: 22.5%
17,Cc1noc(C)c1S(=O)(=O)Nc1ccc2c(c1)C(=O)N([C@H](C)CO)C[C@@H](C)[C@H](CN(C)Cc1ccccc1)O2,inactive: -14.7%
18,Cc1c(Cl)cccc1NC(=O)CC(Cc1ccccc1)C(=O)O (configuration not stated),inconclusive: 25.5%
19,C[C@@H]1CN([C@@H](C)CO)C(=O)c2cc(NC(=O)Nc3ccc(F)cc3)ccc2O[C@H]1CN(C)S(=O)(=O)c1ccccc1,inconclusive: 24.5%
20,Cc1ccccc1S(=O)(=O)N1CC[C@H]2[C@H](CO)Nc3ccc(C#Cc4ccccc4)cc3[C@H]21,inconclusive: 40.9%
21,C[C@H]1CN([C@@H](C)CO)C(=O)c2cccc(NC(=O)Nc3ccc(C(F)(F)F)cc3)c2O[C@H]1CN(C)C(=O)Nc1ccc2c(c1)OCO2,inconclusive: 21.5%
22,Cc1cc(C(=O)NNc2ccc(C)c(C)c2)no1,inconclusive: 33.3%
23,COc1ccc(Nc2c(C3CC3)nc3nc(C)cc(C)n23)cc1,inconclusive: 24.7%
24,C[C@@H]1CN([C@H](C)CO)C(=O)c2cc(C#CCN(C)C)cnc2O[C@H]1CN(C)S(C)(=O)=O,inactive: 5.4%

row,Compound,CPE inhibition
1,COc1ccc(NC(=O)NC2(C(=O)N3CCOCC3)CCCCC2)cc1,inconclusive: 31.2%
2,COCCNC(=O)C[C@H]1CC[C@H]2[C@@H](COC[C@@H](O)CN2Cc2cccc(-c3ccncc3)c2)O1,inactive: 1.02%
3,O=C(CNC(=O)Cc1ccccc1)N=Nc1c(O)[nH]c2ccccc12,inactive: -4.04%
4,C[C@@H]1CN([C@H](C)CO)C(=O)c2cc(C#Cc3ccccn3)cnc2O[C@H]1CN(C)C(=O)CCN1CCCCC1,inconclusive: 22.9%
5,COc1ccc(Cl)cc1C=CC=NNC(=O)c1ccncc1,inconclusive: 56.7%
6,CCCC(=O)Nc1ccc2c(c1)OC[C@H](C)N(C(=O)CC)C[C@H](C)[C@@H](OC)CN(C)C2=O,active: 25.3%
7,CN(C)C(CNC(=O)c1c(F)cccc1Cl)c1ccco1 (configuration not stated),active: 21.2%
8,CCCCCN(C(=O)COC(=O)CSc1ccc([N+](=O)[O-])cc1)c1c(N)n(CCCC)c(=O)[nH]c1=O,inactive: 0.562%
9,COc1ccccc1CN1C[C@H](C)[C@H](OC)CN(C)C(=O)c2ccc(NC(C)=O)cc2OC[C@H]1C,active: 43.3%
10,CCOc1ccc(NC(=O)N(C2CCCCC2)C(C)c2cccnc2)cc1 (configuration not stated),inconclusive: 58.1%
11,CCCCCCSc1ccc(-c2nc3ccc(Cl)cn3c2NCc2ccccc2)cc1,inactive: 3.27%
12,Cc1ccccc1-c1ccc2c(c1)O[C@H](CN(C)C(=O)Nc1ccc(C(F)(F)F)cc1)[C@H](C)CN([C@@H](C)CO)S2(=O)=O,inconclusive: 26%
13,CN(C)C(=O)C[C@H]1CC[C@H]2[C@@H](COC[C@@H](O)CN2Cc2nccs2)O1,inconclusive: 25.5%
14,CSc1nnc(-c2ccc(Br)s2)n1C,inactive: 1.73%
15,CC(=O)NC12CC3CC(C1)CC(C(=O)N(C)CC(=O)Nc1ccc(F)c(F)c1F)(C3)C2,inconclusive: 28.1%
16,Cc1cccc(C)c1NC(=O)NS(=O)(=O)c1ccccc1,inconclusive: 25.6%
17,Cc1noc(C)c1NC(=O)Nc1ccc2c(c1)CC(=O)N([C@@H](C)CO)C[C@@H](C)[C@@H](CN(C)C(=O)Nc1c(C)noc1C)O2,inactive: -1.74%
18,CC(NC(=O)Cc1ccc(NC2=NC3CS(=O)(=O)CC3S2)cc1)c1ccccc1 (configuration not stated),inconclusive: 48%
19,CN(c1ccccc1)S(=O)(=O)c1ccc(C(=O)N2CCCC(C(F)(F)F)C2)cc1 (configuration not stated),inconclusive: 53.7%
20,COc1ccc2c3c(n(C)c2c1)[C@@H](CO)N(C(C)=O)CC31CCN(C(=O)c2cnccn2)CC1,active: 22.6%
21,CCC(=O)N1C[C@H](O)COC[C@H]2O[C@H](CC(=O)NC)CC[C@@H]21,inconclusive: 36%
22,C[C@@H](O)C#Cc1ccc2c(c1)O[C@@H](CN(C)Cc1cccnc1)[C@@H](C)CN([C@@H](C)CO)S2(=O)=O,inconclusive: 21.9%
23,C[C@@H]1CN([C@@H](C)CO)C(=O)c2cc(C#CC3CCCC3)cnc2O[C@@H]1CN(C)Cc1ccncc1,inactive: 4.57%

# As entered above:
# Cc1cccc(C)c1NC(=O)NS(=O)(=O)c1ccccc1 | CPE inhibition: inconclusive: 25.6%
# CN(C)C(CNC(=O)c1c(F)cccc1Cl)c1ccco1 (configuration not stated) | CPE inhibition: active: 21.2%
# Cc1ccccc1-c1ccc2c(c1)O[C@H](CN(C)C(=O)Nc1ccc(C(F)(F)F)cc1)[C@H](C)CN([C@@H](C)CO)S2(=O)=O | CPE inhibition: inconclusive: 26%
